From the supplement of paper PMC10849652
Some of the results follow.

Sequences of proteins named here, by UniProt entry; tags and fusion partners are left off. A change or cut given only in a name is not applied to a line headed by its entry.
UniProt O95573: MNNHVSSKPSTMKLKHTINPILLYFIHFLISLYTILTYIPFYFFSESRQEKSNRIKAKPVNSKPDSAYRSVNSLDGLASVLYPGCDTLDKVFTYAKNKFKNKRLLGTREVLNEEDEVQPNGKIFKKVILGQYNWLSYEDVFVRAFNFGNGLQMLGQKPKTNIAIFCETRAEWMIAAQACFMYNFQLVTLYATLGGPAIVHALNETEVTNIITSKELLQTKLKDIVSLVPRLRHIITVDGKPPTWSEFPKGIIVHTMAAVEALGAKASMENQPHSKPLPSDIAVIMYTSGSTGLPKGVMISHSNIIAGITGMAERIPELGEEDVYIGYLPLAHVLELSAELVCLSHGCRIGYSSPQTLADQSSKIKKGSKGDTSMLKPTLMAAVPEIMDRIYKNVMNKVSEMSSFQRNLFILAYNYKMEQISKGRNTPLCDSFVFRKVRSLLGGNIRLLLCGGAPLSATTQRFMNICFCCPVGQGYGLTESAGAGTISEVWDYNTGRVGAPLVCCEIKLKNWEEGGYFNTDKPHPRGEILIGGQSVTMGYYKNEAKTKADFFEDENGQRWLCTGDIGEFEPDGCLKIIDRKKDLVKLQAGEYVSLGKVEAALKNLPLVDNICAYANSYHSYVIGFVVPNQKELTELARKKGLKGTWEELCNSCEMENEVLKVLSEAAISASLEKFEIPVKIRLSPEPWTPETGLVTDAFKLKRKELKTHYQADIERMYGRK
UniProt Q15057: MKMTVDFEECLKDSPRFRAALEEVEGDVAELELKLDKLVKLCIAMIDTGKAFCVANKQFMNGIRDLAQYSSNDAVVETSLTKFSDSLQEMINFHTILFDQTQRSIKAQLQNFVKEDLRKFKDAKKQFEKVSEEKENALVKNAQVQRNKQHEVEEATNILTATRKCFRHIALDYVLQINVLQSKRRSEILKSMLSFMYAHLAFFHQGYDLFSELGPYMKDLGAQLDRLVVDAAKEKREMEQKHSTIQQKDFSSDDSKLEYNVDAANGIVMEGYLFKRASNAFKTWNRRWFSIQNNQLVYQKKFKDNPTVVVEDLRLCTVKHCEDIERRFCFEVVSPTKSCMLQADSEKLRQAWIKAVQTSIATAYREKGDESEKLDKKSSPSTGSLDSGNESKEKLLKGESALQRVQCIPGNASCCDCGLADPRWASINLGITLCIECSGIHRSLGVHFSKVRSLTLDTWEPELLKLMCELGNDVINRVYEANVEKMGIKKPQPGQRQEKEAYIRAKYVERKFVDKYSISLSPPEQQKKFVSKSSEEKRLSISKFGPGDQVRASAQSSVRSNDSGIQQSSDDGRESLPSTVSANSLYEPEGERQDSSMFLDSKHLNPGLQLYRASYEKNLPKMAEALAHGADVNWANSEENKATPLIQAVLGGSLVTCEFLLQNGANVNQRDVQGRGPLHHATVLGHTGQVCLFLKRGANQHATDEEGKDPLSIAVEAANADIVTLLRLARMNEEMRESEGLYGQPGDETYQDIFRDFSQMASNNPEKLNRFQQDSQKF
UniProt P33897: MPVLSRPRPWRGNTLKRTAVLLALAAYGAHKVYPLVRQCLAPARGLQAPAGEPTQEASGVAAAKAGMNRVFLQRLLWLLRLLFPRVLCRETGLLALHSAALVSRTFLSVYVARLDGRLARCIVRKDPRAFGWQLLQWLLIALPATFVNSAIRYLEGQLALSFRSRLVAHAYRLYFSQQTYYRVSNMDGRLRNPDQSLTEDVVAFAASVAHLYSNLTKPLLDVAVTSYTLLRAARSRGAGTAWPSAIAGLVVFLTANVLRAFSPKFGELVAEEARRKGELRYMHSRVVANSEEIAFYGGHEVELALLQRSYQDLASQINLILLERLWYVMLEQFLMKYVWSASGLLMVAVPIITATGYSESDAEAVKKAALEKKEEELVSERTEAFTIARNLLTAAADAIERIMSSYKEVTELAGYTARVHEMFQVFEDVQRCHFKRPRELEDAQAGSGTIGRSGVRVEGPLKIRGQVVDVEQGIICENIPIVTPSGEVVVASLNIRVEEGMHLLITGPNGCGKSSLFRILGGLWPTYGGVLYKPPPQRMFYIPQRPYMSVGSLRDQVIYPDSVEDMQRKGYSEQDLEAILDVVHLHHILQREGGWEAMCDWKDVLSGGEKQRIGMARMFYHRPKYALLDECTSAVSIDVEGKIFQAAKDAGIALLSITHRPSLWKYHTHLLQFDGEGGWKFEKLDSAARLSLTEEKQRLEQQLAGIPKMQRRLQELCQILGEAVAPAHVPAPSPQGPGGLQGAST
UniProt P14621: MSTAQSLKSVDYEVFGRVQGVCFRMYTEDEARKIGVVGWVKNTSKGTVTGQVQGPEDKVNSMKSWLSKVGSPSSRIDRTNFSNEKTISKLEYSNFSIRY
UniProt P53396: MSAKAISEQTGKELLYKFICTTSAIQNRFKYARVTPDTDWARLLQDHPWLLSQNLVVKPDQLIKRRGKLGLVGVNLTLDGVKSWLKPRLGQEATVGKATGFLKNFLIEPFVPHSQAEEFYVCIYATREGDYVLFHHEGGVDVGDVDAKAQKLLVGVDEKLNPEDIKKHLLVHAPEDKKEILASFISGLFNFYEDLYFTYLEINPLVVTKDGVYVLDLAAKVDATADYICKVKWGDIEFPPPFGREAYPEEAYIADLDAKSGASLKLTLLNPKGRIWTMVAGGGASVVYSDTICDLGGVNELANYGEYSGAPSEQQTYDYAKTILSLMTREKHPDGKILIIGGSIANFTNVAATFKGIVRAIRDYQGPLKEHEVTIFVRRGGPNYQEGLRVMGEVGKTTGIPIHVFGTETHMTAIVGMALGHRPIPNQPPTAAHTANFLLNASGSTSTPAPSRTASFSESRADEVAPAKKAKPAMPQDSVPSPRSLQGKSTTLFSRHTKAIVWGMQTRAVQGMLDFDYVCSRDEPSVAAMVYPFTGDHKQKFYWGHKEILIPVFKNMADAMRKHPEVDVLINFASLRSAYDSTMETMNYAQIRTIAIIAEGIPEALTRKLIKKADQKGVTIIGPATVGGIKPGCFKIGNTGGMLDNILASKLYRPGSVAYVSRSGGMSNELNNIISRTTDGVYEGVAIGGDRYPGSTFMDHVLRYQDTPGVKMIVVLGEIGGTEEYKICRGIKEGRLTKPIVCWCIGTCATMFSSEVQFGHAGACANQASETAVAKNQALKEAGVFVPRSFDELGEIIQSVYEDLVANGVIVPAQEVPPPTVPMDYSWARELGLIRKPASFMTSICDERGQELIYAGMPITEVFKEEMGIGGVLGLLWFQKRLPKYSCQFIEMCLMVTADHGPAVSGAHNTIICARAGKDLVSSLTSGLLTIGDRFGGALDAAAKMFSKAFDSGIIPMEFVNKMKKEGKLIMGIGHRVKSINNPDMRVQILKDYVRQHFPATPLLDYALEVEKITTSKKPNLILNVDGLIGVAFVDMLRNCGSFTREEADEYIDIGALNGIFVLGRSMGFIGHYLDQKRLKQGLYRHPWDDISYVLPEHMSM
UniProt Q8TDG2: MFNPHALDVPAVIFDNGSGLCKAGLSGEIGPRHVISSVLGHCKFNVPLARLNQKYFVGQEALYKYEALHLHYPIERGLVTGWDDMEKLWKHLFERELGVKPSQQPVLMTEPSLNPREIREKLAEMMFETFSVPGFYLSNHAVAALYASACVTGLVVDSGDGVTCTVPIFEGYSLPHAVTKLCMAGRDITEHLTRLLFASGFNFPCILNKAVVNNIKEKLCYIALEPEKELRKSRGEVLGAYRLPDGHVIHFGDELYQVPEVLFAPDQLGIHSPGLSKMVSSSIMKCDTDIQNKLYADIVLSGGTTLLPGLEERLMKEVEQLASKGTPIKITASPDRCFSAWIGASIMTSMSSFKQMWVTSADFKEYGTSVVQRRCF
UniProt Q9BV23: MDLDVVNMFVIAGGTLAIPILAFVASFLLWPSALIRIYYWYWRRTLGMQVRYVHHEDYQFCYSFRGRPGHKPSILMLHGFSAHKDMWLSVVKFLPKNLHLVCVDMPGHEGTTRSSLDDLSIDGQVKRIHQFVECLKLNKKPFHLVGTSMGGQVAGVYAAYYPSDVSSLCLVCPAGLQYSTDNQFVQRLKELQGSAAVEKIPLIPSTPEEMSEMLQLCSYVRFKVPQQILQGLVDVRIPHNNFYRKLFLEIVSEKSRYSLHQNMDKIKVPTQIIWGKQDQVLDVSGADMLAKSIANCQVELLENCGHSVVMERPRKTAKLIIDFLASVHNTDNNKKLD
UniProt Q6JQN1: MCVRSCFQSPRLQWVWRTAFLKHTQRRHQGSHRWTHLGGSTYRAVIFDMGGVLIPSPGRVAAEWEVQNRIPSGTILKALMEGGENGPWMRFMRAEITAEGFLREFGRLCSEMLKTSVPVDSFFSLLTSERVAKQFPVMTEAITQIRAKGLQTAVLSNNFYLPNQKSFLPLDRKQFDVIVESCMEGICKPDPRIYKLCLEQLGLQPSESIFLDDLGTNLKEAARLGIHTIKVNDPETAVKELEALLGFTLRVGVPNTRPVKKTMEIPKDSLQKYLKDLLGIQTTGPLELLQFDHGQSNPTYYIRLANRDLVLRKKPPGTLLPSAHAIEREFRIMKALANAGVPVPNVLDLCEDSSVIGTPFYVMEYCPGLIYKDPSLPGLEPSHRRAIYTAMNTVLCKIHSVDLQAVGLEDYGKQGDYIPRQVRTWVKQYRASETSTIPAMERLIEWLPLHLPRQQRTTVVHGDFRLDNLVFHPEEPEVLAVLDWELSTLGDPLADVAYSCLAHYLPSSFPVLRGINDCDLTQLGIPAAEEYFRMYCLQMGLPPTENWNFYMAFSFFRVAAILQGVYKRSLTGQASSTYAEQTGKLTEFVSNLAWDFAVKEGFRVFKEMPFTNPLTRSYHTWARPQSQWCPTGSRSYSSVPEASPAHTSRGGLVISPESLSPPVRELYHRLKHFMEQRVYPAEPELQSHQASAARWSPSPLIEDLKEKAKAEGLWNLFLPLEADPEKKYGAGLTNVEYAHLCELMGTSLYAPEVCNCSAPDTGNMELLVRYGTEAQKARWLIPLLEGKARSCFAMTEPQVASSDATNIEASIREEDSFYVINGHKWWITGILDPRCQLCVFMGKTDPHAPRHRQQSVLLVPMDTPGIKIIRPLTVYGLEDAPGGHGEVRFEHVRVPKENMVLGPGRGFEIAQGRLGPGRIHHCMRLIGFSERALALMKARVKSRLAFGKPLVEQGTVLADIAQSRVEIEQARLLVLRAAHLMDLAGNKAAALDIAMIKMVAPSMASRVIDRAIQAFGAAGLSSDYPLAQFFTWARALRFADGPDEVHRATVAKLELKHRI
UniProt Q8N6N7: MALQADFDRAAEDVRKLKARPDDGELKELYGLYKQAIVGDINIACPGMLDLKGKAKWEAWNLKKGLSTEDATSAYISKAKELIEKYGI
UniProt P08183, whole entry, looked up: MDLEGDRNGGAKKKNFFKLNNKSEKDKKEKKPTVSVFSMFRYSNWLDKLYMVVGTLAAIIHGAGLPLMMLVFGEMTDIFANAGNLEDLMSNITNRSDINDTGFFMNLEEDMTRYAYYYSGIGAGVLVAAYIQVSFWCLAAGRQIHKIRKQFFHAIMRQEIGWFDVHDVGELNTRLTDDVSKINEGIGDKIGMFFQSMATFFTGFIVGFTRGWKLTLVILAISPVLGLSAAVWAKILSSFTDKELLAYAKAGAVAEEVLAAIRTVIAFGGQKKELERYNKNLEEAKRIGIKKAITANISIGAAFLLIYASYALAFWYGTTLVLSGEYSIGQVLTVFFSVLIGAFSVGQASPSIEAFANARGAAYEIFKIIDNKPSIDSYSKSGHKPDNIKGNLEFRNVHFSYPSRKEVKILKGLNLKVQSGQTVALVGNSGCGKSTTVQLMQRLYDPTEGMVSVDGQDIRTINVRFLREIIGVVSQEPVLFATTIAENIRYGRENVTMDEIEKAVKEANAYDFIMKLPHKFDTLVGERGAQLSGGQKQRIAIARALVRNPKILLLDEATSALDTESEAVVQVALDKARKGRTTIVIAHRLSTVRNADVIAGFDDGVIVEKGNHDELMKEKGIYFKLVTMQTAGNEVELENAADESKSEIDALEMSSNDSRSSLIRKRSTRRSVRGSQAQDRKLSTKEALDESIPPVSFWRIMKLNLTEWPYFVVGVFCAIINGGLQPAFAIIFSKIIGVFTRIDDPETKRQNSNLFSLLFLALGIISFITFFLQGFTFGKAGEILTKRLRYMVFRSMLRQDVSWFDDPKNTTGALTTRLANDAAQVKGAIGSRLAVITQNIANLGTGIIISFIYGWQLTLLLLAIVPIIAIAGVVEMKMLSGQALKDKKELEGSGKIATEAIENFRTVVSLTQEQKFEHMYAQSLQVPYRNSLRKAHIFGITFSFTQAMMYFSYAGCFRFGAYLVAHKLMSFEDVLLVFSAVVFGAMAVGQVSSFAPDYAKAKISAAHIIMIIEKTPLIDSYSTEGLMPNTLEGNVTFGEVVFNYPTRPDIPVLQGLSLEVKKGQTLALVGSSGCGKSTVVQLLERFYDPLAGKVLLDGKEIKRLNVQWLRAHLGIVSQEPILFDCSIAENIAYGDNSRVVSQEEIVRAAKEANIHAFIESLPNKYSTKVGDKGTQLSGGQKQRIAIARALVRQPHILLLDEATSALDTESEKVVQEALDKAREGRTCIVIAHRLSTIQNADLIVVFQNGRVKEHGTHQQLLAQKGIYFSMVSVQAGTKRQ

Columns and labels:
Assay in all cases: log2 fold change, soluble protein after heating vs DMSO (PISA); higher = thermal stabilisation; K562 cells, 10 uM, 30 min; active = over 0.2 and 3.5 SD of the protein, either way, in both replicates (recomputed)
bafetinib = compound: Cc1ccc(NC(=O)c2ccc(CN3CC[C@H](N(C)C)C3)c(C(F)(F)F)c2)cc1Nc1nccc(-c2cncnc2)n1 [bafetinib]
How it was run: (§1)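 Aliquots of K562 cells (2×10^6 cells/mL) treated with 10 μM compound for 30 min were heated for 3 min over 48°C-58°C. After pooling and extraction in PBS with 0.5% NP-40 at 4°C, soluble protein from a 21,000xg, 90 min spin was quantified by TMTpro 16plex LC-MS/MS with channel sums equalised. Thermal stability is expressed against control samples, from duplicates, as a log2 fold change.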

[1] = compound: Cc1cccc(CC(=O)N2CCc3c2ccc(-c2cn(C)c4ncnc(N)c24)c3F)n1
How it was run: as §1

nilotinib = compound: Cc1cn(-c2cc(NC(=O)c3ccc(C)c(Nc4nccc(-c5cccnc5)n4)c3)cc(C(F)(F)F)c2)cn1 [nilotinib]
How it was run: as §1

[2] = compound: Cc1nc(Nc2n[nH]c3c2CN(C(=O)N[C@H](CN(C)C)c2ccccc2)C3(C)C)c2sccc2n1
How it was run: as §1

dasatinib = compound: Cc1nc(Nc2ncc(C(=O)Nc3c(C)cccc3Cl)s2)cc(N2CCN(CCO)CC2)n1 [dasatinib]
How it was run: as §1

[3] = compound: Cc1ncc(-c2ccnc(Nc3ccc(S(C)(=O)=O)cc3)n2)n1C(C)C
How it was run: as §1

[4] = compound: Cn1cc(-c2ccc3c(c2)CCN3C(=O)Cc2cccc(C(F)(F)F)c2)c2c(N)ncnc21
How it was run: as §1

[5] = compound: Cn1cc(-c2ccc3nnc(C(F)(F)c4ccc5ncccc5c4)n3n2)cn1
How it was run: as §1

tipifarnib = compound: Cn1cncc1[C@@](N)(c1ccc(Cl)cc1)c1ccc2c(c1)c(-c1cccc(Cl)c1)cc(=O)n2C [tipifarnib]
How it was run: as §1

mubritinib = compound: FC(F)(F)c1ccc(/C=C/c2nc(COc3ccc(CCCCn4ccnn4)cc3)co2)cc1 [mubritinib]
How it was run: as §1

Measured: log2 fold change

ACTB, A0A2R8Y793
inactive: bafetinib -0.052 | [1] 0.004 | nilotinib -0.003 | [2] 0.001 | dasatinib 0.048 | [3] 0.009 | [4] 0.003 | [5] -0.034 | tipifarnib -0.015 | mubritinib -0.005

ABCB6 (UniProt Q9NP58)
inactive: bafetinib -0.035 | [1] 0.014 | nilotinib 0.022 | [2] 0.032 | dasatinib -0.001 | [3] 0.024 | [4] 0 | [5] -0.025 | tipifarnib 0.005 | mubritinib 0.001

ACAT1 (UniProt P24752)
inactive: bafetinib 0.01 | [1] -0.03 | nilotinib -0.054 | [2] -0.035 | dasatinib 0.007 | [3] -0.071 | [4] -0.05 | [5] 0.022 | tipifarnib -0.03 | mubritinib 0.02

AASDHPPT (UniProt Q9NRN7)
inactive: bafetinib -0.029 | [1] -0.008 | nilotinib -0.021 | [2] 0.021 | dasatinib -0.044 | [3] 0.006 | [4] -0.011 | [5] -0.035 | tipifarnib -0.074 | mubritinib 0.057

ACSL3 (UniProt O95573)
inactive: bafetinib -0.066 | [1] 0.042 | nilotinib -0.086 | [2] -0.048 | dasatinib -0.06 | [3] 0.011 | [4] 0.029 | [5] 0.075 | tipifarnib -0.042 | mubritinib 0

AAK1 (UniProt Q2M2I8)
inactive: bafetinib -0.016 | [1] -0.048 | nilotinib 0.027 | [2] 0.158 | dasatinib -0.203 | [3] 0.219 | [4] -0.011 | [5] -0.086 | tipifarnib -0.057 | mubritinib -0.066

ACAP2 (UniProt Q15057)
inactive: bafetinib 0.093 | [1] 0.052 | nilotinib -0.006 | [2] -0.05 | dasatinib -0.04 | [3] 0.051 | [4] -0.073 | [5] -0.051 | tipifarnib -0.097 | mubritinib 0.016

ADAL (UniProt Q6DHV7)
inactive: bafetinib -0.016 | [1] -0.012 | nilotinib 0.005 | [2] 0.017 | dasatinib 0.007 | [3] -0.015 | [4] 0.056 | [5] 0.109 | tipifarnib -0.008 | mubritinib 0.052

ACSL6 isoform 1 (UniProt Q9UKU0)
inactive: bafetinib 0.147 | [1] 0.057 | nilotinib -0.066 | [2] -0.066 | dasatinib 0.036 | [3] -0.025 | [5] 0.014 | mubritinib 0.015

ACCS (UniProt Q96QU6)
inactive: bafetinib 0.022 | [1] -0.143 | nilotinib -0.005 | [2] 0.015 | [3] -0.036 | [4] 0.15 | [5] 0.029 | mubritinib 0

ABHD13 (UniProt Q7L211)
inactive: bafetinib -0.035 | [1] 0.014 | nilotinib -0.039 | [2] 0.07 | dasatinib -0.097 | [3] 0.101 | [5] -0.092 | tipifarnib -0.047 | mubritinib -0.038

ACTG1 (UniProt K7EM38)
inactive: [1] -0.041 | dasatinib -0.169 | [4] -0.391 | [5] -0.443 | tipifarnib -0.648

ABRAXAS1 (UniProt Q6UWZ7)
inactive: bafetinib -0.2 | [1] -0.075 | dasatinib 0.149 | [4] -0.044 | [5] -0.116 | tipifarnib 0.059 | mubritinib -0.085

ACTN1 (UniProt H9KV75)
inactive: bafetinib 0.15 | nilotinib -0.165 | [2] 0.073 | dasatinib 0.019 | [3] -0.092 | [4] -0.069 | tipifarnib -0.295 | mubritinib 0.199

ACVR1 (UniProt Q04771)
inactive: [1] -0.068 | dasatinib 0.041 | [4] 0.029 | tipifarnib -0.006 | mubritinib -0.124

ACSF2 isoform 2 (UniProt Q96CM8)
inactive: [1] 0.001 | [5] 0.124

ACBD5 (UniProt Q5T8D3)
inactive: [1] -0.112 | dasatinib -0.151 | [4] -0.001 | [5] -0.123 | tipifarnib -0.074 | mubritinib -0.265

ABCD1 (UniProt P33897)
inactive: [4] 0.073

ABCB11 (UniProt O95342)
inactive: [4] 0.025 | [5] -0.013 | tipifarnib 0.073 | mubritinib 0.065

ABCB4 (UniProt P21439)
inactive: [5] 0.062 | tipifarnib -0.151 | mubritinib 0.025

ACYP2 (UniProt P14621)
inactive: nilotinib 0.168 | [2] -0.02 | [3] -0.046 | [4] -0.226 | tipifarnib 0.007 | mubritinib 0.124

ACLY isoform 2 (UniProt P53396)
inactive: bafetinib -0.08 | nilotinib -0.108 | [2] -0.058 | [3] 0.014 | [5] -0.116 | tipifarnib 0.147 | mubritinib -0.306

ACTRT1 (UniProt Q8TDG2)
inactive: bafetinib -0.225 | [1] -0.282 | dasatinib 0.139 | tipifarnib 0.164

AACS (UniProt Q86V21)
inactive: [5] -0.115

ABHD14A (UniProt Q9BUJ0)
inactive: dasatinib 0

ABHD5 (UniProt Q8WTS1)
inactive: bafetinib -0.114 | dasatinib -0.202 | [4] 0 | [5] 0.055 | tipifarnib 0

ABL1 isoform 2 (UniProt P00519)
inactive: [1] 0.038 | [4] 0.011 | [5] -0.102 | tipifarnib 0.028 | mubritinib -0.067

ABCD4 (UniProt O14678)
inactive: bafetinib -0.08 | nilotinib 0.041 | [2] 0.1 | [3] 0.145 | [4] -0.061 | [5] 0.051 | tipifarnib -0.072 | mubritinib 0.044

ABHD6 (UniProt Q9BV23)
inactive: [1] -0.143 | nilotinib 0.887 | [2] -0.025 | [3] 0.053 | [5] 0.174 | tipifarnib 0.407

ABRACL (UniProt Q9P1F3)
inactive: bafetinib -0.207 | nilotinib 0.191 | [2] -0.076 | [3] -0.182 | [5] -0.02 | mubritinib 0.057

ABCF1 (UniProt Q5STZ8)
inactive: bafetinib 0.097 | nilotinib 0.243 | [2] 0.012 | [3] -0.04 | [4] 0.025

ABCA2 isoform 3 (UniProt Q9BZC7)
inactive: bafetinib -0.498 | [5] -0.083

ACTB, A0A2R8YEA7
inactive: bafetinib -0.02 | nilotinib 0.024 | [2] -0.371 | dasatinib 0.087 | [3] 0.044 | [4] -0.552 | [5] -0.069 | mubritinib 0.13

ABL2 (UniProt P42684)
inactive: bafetinib -0.004 | [5] -0.08

ACAD10 isoform 5 (UniProt Q6JQN1)
inactive: dasatinib -0.006 | [5] 0.018

AARSD1 (UniProt Q9BTE6)
inactive: bafetinib 0.142 | nilotinib 0.029 | [2] -0.078 | dasatinib -0.606 | [3] -0.012 | [4] 0.121 | tipifarnib -0.19 | mubritinib 0.066

ADAMTS13 (UniProt Q76LX8)
inactive: dasatinib 0.082 | tipifarnib 0.124

ACAA2 (UniProt K7ER88)
inactive: bafetinib 0.058 | nilotinib -0.105 | [2] -0.043 | [3] 0.022 | tipifarnib 0.098 | mubritinib -0.2

ACTG1 (UniProt I3L4N8)
inactive: nilotinib 0.261 | [2] -0.059 | dasatinib -0.094 | [3] -0.005 | [5] 0.055 | mubritinib -0.133

ACTN4 (UniProt K7EJH8)
inactive: bafetinib -0.036 | [1] -0.029 | dasatinib 0.045 | [4] -0.004 | [5] -0.027 | tipifarnib 0.03 | mubritinib -0.041

ACBD7 (UniProt Q8N6N7)
inactive: [1] -0.157 | dasatinib -0.027 | tipifarnib -0.042

A2ML1 (UniProt A8K2U0)
inactive: nilotinib -0.053 | [2] 0.103 | [3] 0.034 | [5] 0.074 | tipifarnib 0.382 | mubritinib -0.174

2 successive entries already listed, for reference:
ACBD7 (UniProt Q8N6N7)
inactive: [1] -0.157 | dasatinib -0.027 | tipifarnib -0.042

A2ML1 (UniProt A8K2U0)
inactive: nilotinib -0.053 | [2] 0.103 | [3] 0.034 | [5] 0.074 | tipifarnib 0.382 | mubritinib -0.174

More entries follow.

ACOX3 (UniProt O15254)
inactive: bafetinib 0.053 | nilotinib 0.159 | [2] -0.028 | [3] 0.107 | [4] -0.009 | tipifarnib 0.272 | mubritinib -0.241

ADCK1 (UniProt Q86TW2)
inactive: nilotinib -0.029 | [2] 0.039 | dasatinib -0.041 | [3] -0.063 | [4] -0.04 | [5] 0.071 | tipifarnib 0.048 | mubritinib 0.195

ACTR3B (UniProt Q9P1U1)
inactive: [1] 0.035 | nilotinib 0.036 | [2] -0.082 | [3] -0.001 | [5] -0.051 | tipifarnib 0.129

ACTB, A0A2R8YGF8
inactive: mubritinib -1.16

ABCB1 (UniProt P08183)
inactive: [4] 0.023 | tipifarnib 0.19 | mubritinib -0.318

ABCB5 (UniProt Q2M3G0)
inactive: bafetinib -0.022 | nilotinib -0.027 | [2] -0.041 | [3] 0.108
